Results published in ChEMBL document CHEMBL1221243, “Design, synthesis, and biological evaluation of a novel series of quercetin diacylglucosides as potent anti-MRSA and anti-VRE agents” (Bioorg Med Chem Lett, 2010).

System: Pseudomonas aeruginosa
Assay: Antimicrobial activity against Pseudomonas aeruginosa PAO1 after 24 hrs by microdilution assay
Format: functional
Conditions: PAO1, 24 h

SMILES: CN[C@H](CC(C)C)C(=O)N[C@H]1C(=O)N[C@@H](CC(N)=O)C(=O)N[C@H]2C(=O)N[C@H]3C(=O)N[C@H](C(=O)N[C@H](C(=O)O)c4cc(O)cc(O)c4-c4cc3ccc4O)[C@H](O)c3ccc(c(Cl)c3)Oc3cc2cc(c3O[C@@H]2O[C@H](CO)[C@@H](O)[C@H](O)[C@H]2O[C@H]2C[C@](C)(N)[C@H](O)[C@H](C)O2)Oc2ccc(cc2Cl)[C@H]1O [VANCOMYCIN]
- MIC: > 128 µg/mL
